No constants are given. Whether binding was seen depends on the method and setting. In cells and extracts the contact can be indirect. Some results given as binding are weak or reduced against the parent protein; the word gives no strength. For some of these results: Sequences can lack the tags named with a protein.
Legend:
[1] = target: T1, GEF-H1 (human (endogenous in U2OS and HEK293A)) (UniProt Q92974); test: co-IP; immunoprecipitation with GEF-H1 antibody from lysates of cells with or without induction of TBC1D3C or TBC1D3C-RD2A; immunoblot for Tctex, DIC and 14-3-3
T1 sequence: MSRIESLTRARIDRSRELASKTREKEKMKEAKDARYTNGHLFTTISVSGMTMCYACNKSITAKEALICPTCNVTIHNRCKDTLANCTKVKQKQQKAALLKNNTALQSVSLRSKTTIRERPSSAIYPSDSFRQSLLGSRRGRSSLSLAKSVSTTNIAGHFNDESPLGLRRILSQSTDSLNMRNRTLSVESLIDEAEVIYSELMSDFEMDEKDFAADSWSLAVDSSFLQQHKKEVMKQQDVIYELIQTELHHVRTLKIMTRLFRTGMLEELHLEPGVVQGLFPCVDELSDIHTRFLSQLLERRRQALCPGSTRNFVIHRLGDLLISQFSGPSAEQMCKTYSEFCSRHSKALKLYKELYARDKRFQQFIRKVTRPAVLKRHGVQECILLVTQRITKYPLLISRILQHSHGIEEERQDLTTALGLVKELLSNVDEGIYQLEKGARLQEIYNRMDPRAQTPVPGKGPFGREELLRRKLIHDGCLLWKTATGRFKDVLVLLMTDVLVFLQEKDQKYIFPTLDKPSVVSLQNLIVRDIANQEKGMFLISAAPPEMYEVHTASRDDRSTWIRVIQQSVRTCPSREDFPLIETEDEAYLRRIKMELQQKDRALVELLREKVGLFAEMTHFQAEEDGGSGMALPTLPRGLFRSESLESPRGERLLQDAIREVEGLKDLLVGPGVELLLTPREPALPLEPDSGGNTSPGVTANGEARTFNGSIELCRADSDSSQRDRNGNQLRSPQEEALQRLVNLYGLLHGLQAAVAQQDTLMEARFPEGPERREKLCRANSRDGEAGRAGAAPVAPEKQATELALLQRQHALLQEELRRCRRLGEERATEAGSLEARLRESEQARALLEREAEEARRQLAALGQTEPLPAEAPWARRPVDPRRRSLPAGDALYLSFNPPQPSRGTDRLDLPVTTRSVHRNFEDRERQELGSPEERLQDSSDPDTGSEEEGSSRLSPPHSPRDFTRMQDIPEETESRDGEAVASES

By UniProt entry, the sequences of proteins in these tests, tags left out.
UniProt Q6IPX1: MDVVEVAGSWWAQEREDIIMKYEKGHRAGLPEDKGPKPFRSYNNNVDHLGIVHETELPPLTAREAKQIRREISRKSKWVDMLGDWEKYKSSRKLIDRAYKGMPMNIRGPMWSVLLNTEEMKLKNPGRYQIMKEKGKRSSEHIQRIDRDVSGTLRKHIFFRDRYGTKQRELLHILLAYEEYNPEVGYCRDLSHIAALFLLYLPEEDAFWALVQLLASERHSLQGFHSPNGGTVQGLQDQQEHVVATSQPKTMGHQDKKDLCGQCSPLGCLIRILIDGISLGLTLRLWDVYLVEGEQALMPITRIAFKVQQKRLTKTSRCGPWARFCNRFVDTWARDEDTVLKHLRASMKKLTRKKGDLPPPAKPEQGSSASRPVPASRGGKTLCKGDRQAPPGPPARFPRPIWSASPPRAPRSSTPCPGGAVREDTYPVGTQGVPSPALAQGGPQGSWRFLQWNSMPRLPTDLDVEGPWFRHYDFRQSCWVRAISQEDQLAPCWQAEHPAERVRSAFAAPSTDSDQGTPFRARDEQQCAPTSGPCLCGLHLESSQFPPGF
UniProt P63172: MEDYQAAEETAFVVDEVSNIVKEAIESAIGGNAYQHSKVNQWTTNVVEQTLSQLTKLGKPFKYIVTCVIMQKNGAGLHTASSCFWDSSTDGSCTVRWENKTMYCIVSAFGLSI

[2] = target: FLAG-TBC1D3C full-length (human) (UniProt Q6IPX1); test: co-IP; HEK293T cells co-transfected with FLAG-TBC1D3C forms and Myc-GEF-H1 forms; immunoprecipitation with anti-FLAG M2 agarose beads, immunoblot with FLAG and Myc antibodies

For “TBC1D3C (TetOn, Dox-induced) (from UniProt Q6IPX1 1-549)”, the binding [1] was “binds”.

For Tctex-1 (from UniProt P63172 1-113), the binding [1] was “binds”.

B1: Myc-GEF-H1 DH (domain or fragment, UniProt Q92974 235-432)
chain: KQQDVIYELIQTELHHVRTLKIMTRLFRTGMLEELHLEPGVVQGLFPCVDELSDIHTRFLSQLLERRRQALCPGSTRNFVIHRLGDLLISQFSGPSAEQMCKTYSEFCSRHSKALKLYKELYARDKRFQQFIRKVTRPAVLKRHGVQECILLVTQRITKYPLLISRILQHSHGIEEERQDLTTALGLVKELLSNVDEG
In the case of B1, the binding [2] is reported as “binds weakly”.

B2: Myc-GEF-H1 PH (domain or fragment, UniProt Q92974 472-571)
chain: KLIHDGCLLWKTATGRFKDVLVLLMTDVLVFLQEKDQKYIFPTLDKPSVVSLQNLIVRDIANQEKGMFLISAAPPEMYEVHTASRDDRSTWIRVIQQSVR
For B2, the binding [2] was “binds weakly”.

Source: PMC11519374
